According to PMC5342555, “ATAD2 is an epigenetic reader of newly synthesized histone marks during DNA replication” (Oncotarget, 2016):
Results are given in words; binding and its absence hold for the method and conditions named. In cells and extracts the contact can be indirect. These calls come from enrichment with a bait or labelling near it, and not all partners need be listed.

Sequences of proteins named here, by UniProt entry; tags and fusion partners are left off. Residues count along the entry.
UniProt P16401: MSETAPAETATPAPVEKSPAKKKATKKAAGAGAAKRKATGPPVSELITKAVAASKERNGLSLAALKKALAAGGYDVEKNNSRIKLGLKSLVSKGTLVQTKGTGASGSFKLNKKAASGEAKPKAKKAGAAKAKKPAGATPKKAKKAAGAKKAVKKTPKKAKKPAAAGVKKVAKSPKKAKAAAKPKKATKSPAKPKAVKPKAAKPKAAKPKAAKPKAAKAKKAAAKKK
UniProt P20700: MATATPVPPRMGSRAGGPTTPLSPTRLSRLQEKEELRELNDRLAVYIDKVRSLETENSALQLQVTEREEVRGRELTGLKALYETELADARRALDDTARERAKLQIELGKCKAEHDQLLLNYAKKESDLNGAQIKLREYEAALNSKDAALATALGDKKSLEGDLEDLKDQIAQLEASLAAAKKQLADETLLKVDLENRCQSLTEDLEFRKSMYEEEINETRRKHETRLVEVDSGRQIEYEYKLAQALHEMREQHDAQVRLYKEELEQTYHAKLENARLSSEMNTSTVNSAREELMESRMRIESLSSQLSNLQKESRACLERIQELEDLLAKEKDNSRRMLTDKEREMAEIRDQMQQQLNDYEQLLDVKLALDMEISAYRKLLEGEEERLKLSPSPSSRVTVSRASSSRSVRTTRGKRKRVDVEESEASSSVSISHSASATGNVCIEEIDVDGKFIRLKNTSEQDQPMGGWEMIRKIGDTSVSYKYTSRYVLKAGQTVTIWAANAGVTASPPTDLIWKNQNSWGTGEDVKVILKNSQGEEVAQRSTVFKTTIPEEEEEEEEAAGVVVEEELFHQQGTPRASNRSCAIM
UniProt P02545, residues 1-646: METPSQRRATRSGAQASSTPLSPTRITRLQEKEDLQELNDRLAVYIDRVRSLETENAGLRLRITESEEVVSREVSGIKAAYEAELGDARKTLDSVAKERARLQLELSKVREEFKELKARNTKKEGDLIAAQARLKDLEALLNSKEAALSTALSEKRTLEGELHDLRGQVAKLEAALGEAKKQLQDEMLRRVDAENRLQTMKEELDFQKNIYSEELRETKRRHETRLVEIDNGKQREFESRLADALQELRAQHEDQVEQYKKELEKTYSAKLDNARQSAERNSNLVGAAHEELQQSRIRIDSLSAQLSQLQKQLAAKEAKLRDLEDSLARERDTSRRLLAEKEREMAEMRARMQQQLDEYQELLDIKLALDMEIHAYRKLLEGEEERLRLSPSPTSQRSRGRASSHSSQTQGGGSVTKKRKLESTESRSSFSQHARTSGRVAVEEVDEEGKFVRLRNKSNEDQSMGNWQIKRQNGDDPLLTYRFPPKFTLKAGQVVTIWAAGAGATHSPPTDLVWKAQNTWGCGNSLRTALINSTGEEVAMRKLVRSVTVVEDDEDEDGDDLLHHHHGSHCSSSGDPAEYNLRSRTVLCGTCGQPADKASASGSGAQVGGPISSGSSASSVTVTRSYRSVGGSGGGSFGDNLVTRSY

molecular target: T1, ATAD2 (ATPase family AAA domain-containing protein 2), endogenous (human (endogenous in MCF7)) (UniProt Q6PL18); assay: affinity purification with mass spectrometry; SILAC: immunoprecipitation with control antibody and antibody against ATAD2 on MCF7 cells grown in light (L) and heavy (H; K8, R10) medium; hits with log10 H/L higher than 1.2 in all triplicates
T1 sequence: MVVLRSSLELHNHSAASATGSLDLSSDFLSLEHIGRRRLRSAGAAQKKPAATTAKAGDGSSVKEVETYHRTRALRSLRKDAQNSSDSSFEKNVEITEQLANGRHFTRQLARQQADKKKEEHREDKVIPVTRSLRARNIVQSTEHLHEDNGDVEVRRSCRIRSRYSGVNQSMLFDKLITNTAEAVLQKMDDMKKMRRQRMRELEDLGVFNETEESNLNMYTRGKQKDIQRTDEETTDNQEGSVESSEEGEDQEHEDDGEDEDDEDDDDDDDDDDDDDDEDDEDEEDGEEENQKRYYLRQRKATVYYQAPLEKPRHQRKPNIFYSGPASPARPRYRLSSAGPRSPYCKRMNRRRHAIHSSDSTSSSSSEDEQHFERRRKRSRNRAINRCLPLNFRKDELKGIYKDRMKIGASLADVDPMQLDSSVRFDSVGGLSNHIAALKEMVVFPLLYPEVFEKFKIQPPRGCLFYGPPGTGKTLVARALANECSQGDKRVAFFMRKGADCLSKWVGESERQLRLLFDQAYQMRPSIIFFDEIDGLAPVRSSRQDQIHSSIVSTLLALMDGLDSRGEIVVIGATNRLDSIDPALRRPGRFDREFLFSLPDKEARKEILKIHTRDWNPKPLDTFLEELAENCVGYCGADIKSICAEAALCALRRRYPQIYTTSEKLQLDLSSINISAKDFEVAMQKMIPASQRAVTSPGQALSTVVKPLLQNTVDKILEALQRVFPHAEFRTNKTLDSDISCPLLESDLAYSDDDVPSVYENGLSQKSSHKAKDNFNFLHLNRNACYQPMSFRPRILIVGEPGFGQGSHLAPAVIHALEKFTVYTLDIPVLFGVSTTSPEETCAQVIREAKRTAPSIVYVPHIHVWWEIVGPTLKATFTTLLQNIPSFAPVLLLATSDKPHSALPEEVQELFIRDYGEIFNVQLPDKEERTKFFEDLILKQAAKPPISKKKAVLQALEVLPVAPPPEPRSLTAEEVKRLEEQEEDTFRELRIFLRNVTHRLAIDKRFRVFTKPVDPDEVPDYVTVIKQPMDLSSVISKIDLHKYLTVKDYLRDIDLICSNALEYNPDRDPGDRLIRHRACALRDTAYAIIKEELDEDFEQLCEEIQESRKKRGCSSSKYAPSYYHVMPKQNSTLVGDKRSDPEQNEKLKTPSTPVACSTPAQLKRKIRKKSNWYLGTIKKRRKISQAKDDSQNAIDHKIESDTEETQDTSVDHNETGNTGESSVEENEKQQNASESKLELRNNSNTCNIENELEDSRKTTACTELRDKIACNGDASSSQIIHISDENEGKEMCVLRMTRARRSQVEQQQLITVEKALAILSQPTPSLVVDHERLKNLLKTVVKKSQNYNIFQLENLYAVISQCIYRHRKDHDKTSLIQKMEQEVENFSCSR

binding | Substance
binds | histone H1.5, endogenous (from UniProt P16401 1-226)
binds | lamin B1, endogenous (from UniProt P20700 1-586)
binds | prelamin A/C, endogenous (from UniProt P02545 1-646)
